# Measured values reported in patent publication US20210393685A1 (TRUSTEES OF COLUMBIA UNIVERSITY IN THE CITY OF NEW YORK, published 2021).
# The chains behind the UniProt entries cited, without tags or fusion partners.
# UniProt P26718: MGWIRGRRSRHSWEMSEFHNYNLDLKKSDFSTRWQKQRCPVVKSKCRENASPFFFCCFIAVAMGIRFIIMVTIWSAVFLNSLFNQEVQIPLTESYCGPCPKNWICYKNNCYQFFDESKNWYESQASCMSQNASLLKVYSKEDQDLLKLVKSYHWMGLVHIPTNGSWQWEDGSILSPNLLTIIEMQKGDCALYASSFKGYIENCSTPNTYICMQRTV
# Results are given in words; binding and its absence hold for the method and conditions named. Some binding calls cover weakened binding; strength is not graded here.
# Assays:
# [1] = molecular target: NKG2D on primary NK cells (human) (UniProt P26718); assay: flow cytometry on primary NK cells, detected with anti-Myc Ab (FIG. 5D)
# [2] = molecular target: NKG2D on primary NK cells (human) (UniProt P26718); assay: flow cytometry on NKG2D-expressing primary NK cells, detected with FITC anti-Myc antibody
# [3] = molecular target: NKG2D on primary NK cells (human) (UniProt P26718); assay: flow cytometry on primary NK cells, detected with anti-Myc Ab (FIG. 5E)
binder,measurement,setting,value
"anti-CD33-ULBP1 chimera 1 (CD33-ULBP1-1) (other, also called αCD33-ULBP1 chimera 1) EIVLTQSPGSLAVSPGERVTMSCKSSQSVFFSSSQKNYLAWYQQIPGQSPRLLIYWASTRESGVPDRFTGSGSGTDFTLTISSVQPEDLAIYYCHQYLSSRTFGQGTKLEIKRGSTSGSGKPGSGEGSTKGQVQLQQPGAEVVKPGASVKMSCKASGYTFTSYYIHWIKQTPGQGLEWVGVIYPGNDDISYNQKFQGKATLTADKSSTTAYMQLSSLTSEDSAVYYCAREVRLRYFDVWGQGTTVTVSSSSSAGGGGSGGGGSGGGGSWVDTHCLCYDFIITPKSRPEPQWCEVQGLVDERPFLHYDCVNHKAKAFASLGKKVNVTKTWEEQTETLRDVVDFLKGQLLDIQVENLIPIEPLTLQARMSCEHEAHGHGRGSWQFLFNGQKFLLFDSNNRKWTALHPGAKKMTEKWEKNRDVTMFFQKISLGDCKMWLEEFLMYWEQMLDPTKPPSLAPGEQKLISEEDLHHHHHH",binding,[1],binds
same,binding,[2],binds
"anti-CD33-ULBP1 chimera 2 (CD33-ULBP1-2, with proline) (other, also called αCD33-ULBP1 chimera 2) EIVLTQSPGSLAVSPGERVTMSCKSSQSVFFSSSQKNYLAWYQQIPGQSPRLLIYWASTRESGVPDRFTGSGSGTDFTLTISSVQPEDLAIYYCHQYLSSRTFGQGTKLEIKRGSTSGSGKPGSGEGSTKGQVQLQQPGAEVVKPGASVKMSCKASGYTFTSYYIHWIKQTPGQGLEWVGVIYPGNDDISYNQKFQGKATLTADKSSTTAYMQLSSLTSEDSAVYYCAREVRLRYFDVWGQGTTVTVSSSSSAGGGGSGGGGSGGGGSPWVDTHCLCYDFIITPKSRPEPQWCEVQGLVDERPFLHYDCVNHKAKAFASLGKKVNVTKTWEEQTETLRDVVDFLKGQLLDIQVENLIPIEPLTLQARMSCEHEAHGHGRGSWQFLFNGQKFLLFDSNNRKWTALHPGAKKMTEKWEKNRDVTMFFQKISLGDCKMWLEEFLMYWEQMLDPTKPPSLAPGEQKLISEEDLHHHHHH",binding,[3],binds
same,binding,[2],binds
